Construct, isoform or probe ends are uncertain for at least one entry. Results from cells or extracts need not show a direct contact. For some of these results: The comparison behind a weaker result is the experiment's own reference, which may not be listed here.
Tests used:
STAT3-D427H-GFP [1] = biological target: STAT3-D427H-GFP (UniProt P40763); assay: EMSA; conditions: EMSA: 4 µl whole cell extract + 8 µl EMSA buffer (composition not given) with poly(dI-dC), 1 ng probe, 15 min (RT in competition assay; chase 10 min on ice), protein in an extract, protein details: GFP fusion, label: 33P (Klenow end-fill)
STAT3-D427H-SNAP [2] = biological target: STAT3-D427H-SNAP (UniProt P40763); assay: EMSA; conditions: EMSA: 4 µl whole cell extract + 8 µl EMSA buffer (composition not given) with poly(dI-dC), 1 ng probe, 15 min (RT in competition assay; chase 10 min on ice), protein in an extract, protein details: SNAP fusion, label: 33P (Klenow end-fill)
STAT3-WT-SNAP [3] = biological target: STAT3-WT-SNAP (UniProt P40763); assay: EMSA; conditions: EMSA: 4 µl whole cell extract + 8 µl EMSA buffer (composition not given) with poly(dI-dC), 1 ng probe, 15 min (RT in competition assay; chase 10 min on ice), protein in an extract, protein details: SNAP fusion, label: 33P (Klenow end-fill)
STAT3-WT-GFP [4] = biological target: STAT3-WT-GFP (UniProt P40763); assay: EMSA; conditions: EMSA: 4 µl whole cell extract + 8 µl EMSA buffer (composition not given) with poly(dI-dC), 1 ng probe, 15 min (RT in competition assay; chase 10 min on ice), protein in an extract, protein details: GFP fusion, label: 33P (Klenow end-fill)
STAT3-F174A-SNAP = STAT3-F174A-SNAP (UniProt P40763); assay: EMSA; conditions: IL-6 or IFNg stimulated, increased, similar to D427H; EMSA: 4 µl whole cell extract + 8 µl EMSA buffer (composition not given) with poly(dI-dC), 1 ng probe, 15 min (RT in competition assay; chase 10 min on ice); protein in an extract; protein details: SNAP fusion; label: 33P (Klenow end-fill)
STAT3-F174A-GFP = STAT3-F174A-GFP (UniProt P40763); assay: EMSA; conditions: IL-6 or IFNg stimulated, increased, similar to D427H; EMSA: 4 µl whole cell extract + 8 µl EMSA buffer (composition not given) with poly(dI-dC), 1 ng probe, 15 min (RT in competition assay; chase 10 min on ice); protein in an extract; protein details: GFP fusion; label: 33P (Klenow end-fill)
STAT3-D427H-GFP [5] = biological target: STAT3-D427H-GFP (UniProt P40763); assay: competition with a labelled probe; conditions: IL-6, 750x unlabelled M67 chase 10 min: complex resists, reduced dissociation; EMSA: 4 µl whole cell extract + 8 µl EMSA buffer (composition not given) with poly(dI-dC), 1 ng probe, 15 min (RT in competition assay; chase 10 min on ice); protein in an extract; protein details: GFP fusion; label: 33P (Klenow end-fill)
STAT3-WT-SNAP [6] = biological target: STAT3-WT-SNAP (UniProt P40763); assay: competition with a labelled probe; conditions: IL-6, 750x unlabelled M67 chase 10 min: complete loss of labelled complex; EMSA: 4 µl whole cell extract + 8 µl EMSA buffer (composition not given) with poly(dI-dC), 1 ng probe, 15 min (RT in competition assay; chase 10 min on ice); protein in an extract; protein details: SNAP fusion; label: 33P (Klenow end-fill)
STAT3-D427H-SNAP [7] = biological target: STAT3-D427H-SNAP (UniProt P40763); assay: competition with a labelled probe; conditions: IL-6, 750x unlabelled M67 chase 10 min: complex resists, reduced dissociation; EMSA: 4 µl whole cell extract + 8 µl EMSA buffer (composition not given) with poly(dI-dC), 1 ng probe, 15 min (RT in competition assay; chase 10 min on ice); protein in an extract; protein details: SNAP fusion; label: 33P (Klenow end-fill)
STAT3-WT-GFP [8] = biological target: STAT3-WT-GFP (UniProt P40763); assay: competition with a labelled probe; conditions: IL-6, 750x unlabelled M67 chase 10 min: complete loss of labelled complex; EMSA: 4 µl whole cell extract + 8 µl EMSA buffer (composition not given) with poly(dI-dC), 1 ng probe, 15 min (RT in competition assay; chase 10 min on ice); protein in an extract; protein details: GFP fusion; label: 33P (Klenow end-fill)
[9] = IFNg stimulated, increased tetramer and dimer vs WT
[10] = IFNg stimulated, weak, predominantly dimer
[11] = IL-6 or IFNg stimulated, increased vs WT

By UniProt entry, the sequences of proteins in these tests, tags left out.
UniProt P40763, whole entry D427H: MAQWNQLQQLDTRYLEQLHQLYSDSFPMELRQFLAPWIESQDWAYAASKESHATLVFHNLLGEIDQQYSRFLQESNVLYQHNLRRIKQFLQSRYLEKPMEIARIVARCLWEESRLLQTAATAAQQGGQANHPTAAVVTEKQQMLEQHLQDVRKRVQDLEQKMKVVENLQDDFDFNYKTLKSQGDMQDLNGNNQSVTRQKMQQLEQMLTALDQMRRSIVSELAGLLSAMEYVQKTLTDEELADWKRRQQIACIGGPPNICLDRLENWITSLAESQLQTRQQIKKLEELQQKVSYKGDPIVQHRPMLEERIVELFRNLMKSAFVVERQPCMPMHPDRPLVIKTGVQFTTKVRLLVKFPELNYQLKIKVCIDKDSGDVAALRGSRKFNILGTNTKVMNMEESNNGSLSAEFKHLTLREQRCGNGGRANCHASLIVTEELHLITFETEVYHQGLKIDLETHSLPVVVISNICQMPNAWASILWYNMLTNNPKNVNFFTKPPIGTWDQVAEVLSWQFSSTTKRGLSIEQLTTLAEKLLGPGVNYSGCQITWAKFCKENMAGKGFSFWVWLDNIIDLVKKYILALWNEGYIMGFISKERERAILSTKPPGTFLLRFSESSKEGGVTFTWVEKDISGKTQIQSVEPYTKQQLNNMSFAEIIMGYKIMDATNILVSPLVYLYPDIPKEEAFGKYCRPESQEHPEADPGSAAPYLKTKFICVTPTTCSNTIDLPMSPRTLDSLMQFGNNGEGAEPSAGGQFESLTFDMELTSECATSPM
UniProt P40763, whole entry: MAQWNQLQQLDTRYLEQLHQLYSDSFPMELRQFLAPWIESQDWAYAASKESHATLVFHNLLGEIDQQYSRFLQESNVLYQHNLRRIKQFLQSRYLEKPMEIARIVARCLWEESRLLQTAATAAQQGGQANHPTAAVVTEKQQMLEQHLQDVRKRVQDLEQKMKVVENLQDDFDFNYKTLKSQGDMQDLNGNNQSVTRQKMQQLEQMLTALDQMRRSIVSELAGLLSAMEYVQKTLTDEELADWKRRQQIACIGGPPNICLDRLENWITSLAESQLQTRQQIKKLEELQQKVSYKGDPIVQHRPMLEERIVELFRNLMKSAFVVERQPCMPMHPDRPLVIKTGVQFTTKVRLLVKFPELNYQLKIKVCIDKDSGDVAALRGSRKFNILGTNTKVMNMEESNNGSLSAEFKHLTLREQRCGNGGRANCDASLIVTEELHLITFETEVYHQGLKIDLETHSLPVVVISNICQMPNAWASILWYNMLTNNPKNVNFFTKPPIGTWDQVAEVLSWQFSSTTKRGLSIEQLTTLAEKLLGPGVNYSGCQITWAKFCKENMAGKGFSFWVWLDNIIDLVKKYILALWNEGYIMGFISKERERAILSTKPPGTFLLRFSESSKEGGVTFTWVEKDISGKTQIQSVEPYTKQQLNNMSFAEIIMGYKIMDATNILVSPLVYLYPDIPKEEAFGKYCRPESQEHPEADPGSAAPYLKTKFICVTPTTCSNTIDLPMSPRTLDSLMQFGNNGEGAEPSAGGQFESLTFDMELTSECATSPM
UniProt P40763, whole entry F174A: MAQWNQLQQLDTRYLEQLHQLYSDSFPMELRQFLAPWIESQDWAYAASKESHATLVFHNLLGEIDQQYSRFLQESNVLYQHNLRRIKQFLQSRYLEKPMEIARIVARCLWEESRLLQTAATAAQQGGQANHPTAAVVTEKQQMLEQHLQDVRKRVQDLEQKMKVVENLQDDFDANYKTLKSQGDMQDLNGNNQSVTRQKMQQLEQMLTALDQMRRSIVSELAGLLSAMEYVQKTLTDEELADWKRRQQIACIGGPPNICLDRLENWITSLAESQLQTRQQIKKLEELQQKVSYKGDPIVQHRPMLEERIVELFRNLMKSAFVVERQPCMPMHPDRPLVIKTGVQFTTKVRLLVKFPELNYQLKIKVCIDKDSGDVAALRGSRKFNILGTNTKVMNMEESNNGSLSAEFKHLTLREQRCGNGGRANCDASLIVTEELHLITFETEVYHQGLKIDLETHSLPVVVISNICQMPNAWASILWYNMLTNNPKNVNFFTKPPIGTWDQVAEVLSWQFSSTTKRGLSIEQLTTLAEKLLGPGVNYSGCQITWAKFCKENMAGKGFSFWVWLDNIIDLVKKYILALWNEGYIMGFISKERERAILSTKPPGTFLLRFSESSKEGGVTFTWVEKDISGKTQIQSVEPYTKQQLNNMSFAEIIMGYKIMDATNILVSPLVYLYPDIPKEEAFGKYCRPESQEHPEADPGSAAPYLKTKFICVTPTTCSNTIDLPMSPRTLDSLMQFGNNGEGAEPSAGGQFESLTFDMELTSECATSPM

Measured: binding result

TTTTCGTTTACCCCAAATTGACGGATTTACCCCAAC (double strand) [2xnonGAS]
binds more weakly: STAT3-D427H-GFP [1]; IFNg stimulated, weak binding | STAT3-D427H-SNAP [2]; IFNg stimulated, weak binding

TTTTCGTTTCCCCGAAATTGACGGATTTACCCCAAC (double strand) [GAS-nonGAS]
binds more weakly: STAT3-WT-SNAP [3]; [10] | STAT3-WT-GFP [4]; [10]
binds: STAT3-D427H-GFP [1]; [9] | STAT3-D427H-SNAP [2]; [9]

TTTTCGACATTTCCCGTAAATCTG (double strand) [M67 (SIE/GAS)]
binds: STAT3-D427H-GFP [1]; [11] | STAT3-F174A-SNAP | STAT3-F174A-GFP | STAT3-WT-SNAP [3]; IL-6 or IFNg stimulated | STAT3-D427H-SNAP [2]; [11] | STAT3-WT-GFP [4]; IL-6 or IFNg stimulated | STAT3-D427H-GFP [5] | STAT3-WT-SNAP [6] | STAT3-D427H-SNAP [7] | STAT3-WT-GFP [8]

— publication PMC9233852
